The values that follow come from PMC12101078.

Protein sequences, listed by entry. Tags and fused reporters are not part of them. Lines headed by an entry give the natural chain unless they say otherwise; changes in a name come on top.
UniProt Q03370: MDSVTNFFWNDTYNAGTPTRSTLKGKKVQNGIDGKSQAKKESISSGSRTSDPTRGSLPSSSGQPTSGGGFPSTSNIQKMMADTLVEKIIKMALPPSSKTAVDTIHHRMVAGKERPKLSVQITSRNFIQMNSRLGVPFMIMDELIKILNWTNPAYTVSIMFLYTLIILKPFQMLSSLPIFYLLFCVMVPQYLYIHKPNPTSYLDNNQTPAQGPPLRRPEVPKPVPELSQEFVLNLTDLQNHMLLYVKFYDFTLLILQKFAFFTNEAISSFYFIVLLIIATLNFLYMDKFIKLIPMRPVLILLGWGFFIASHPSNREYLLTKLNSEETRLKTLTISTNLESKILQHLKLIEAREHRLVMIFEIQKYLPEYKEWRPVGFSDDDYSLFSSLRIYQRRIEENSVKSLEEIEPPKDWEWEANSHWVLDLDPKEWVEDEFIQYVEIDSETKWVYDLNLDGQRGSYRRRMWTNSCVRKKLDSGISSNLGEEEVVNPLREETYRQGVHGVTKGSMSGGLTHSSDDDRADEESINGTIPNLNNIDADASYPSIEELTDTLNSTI

Assay in all cases: co-IP; crude membrane fraction of yeast solubilised with 1% DMNG in 50 mM Tris-HCl pH 7.4, 200 mM NaCl, 1 mM EDTA; tagged protein isolated 2 h at 4°C on anti-HA, anti-V5 or anti-Myc magnetic beads, washed with 0.02% DMNG; Pex30 detected by immunoblot with anti-Pex30
For experiment [1], the target named is T1, Pex28-13xMyc (S. cerevisiae) (UniProt P38848).
T1 sequence: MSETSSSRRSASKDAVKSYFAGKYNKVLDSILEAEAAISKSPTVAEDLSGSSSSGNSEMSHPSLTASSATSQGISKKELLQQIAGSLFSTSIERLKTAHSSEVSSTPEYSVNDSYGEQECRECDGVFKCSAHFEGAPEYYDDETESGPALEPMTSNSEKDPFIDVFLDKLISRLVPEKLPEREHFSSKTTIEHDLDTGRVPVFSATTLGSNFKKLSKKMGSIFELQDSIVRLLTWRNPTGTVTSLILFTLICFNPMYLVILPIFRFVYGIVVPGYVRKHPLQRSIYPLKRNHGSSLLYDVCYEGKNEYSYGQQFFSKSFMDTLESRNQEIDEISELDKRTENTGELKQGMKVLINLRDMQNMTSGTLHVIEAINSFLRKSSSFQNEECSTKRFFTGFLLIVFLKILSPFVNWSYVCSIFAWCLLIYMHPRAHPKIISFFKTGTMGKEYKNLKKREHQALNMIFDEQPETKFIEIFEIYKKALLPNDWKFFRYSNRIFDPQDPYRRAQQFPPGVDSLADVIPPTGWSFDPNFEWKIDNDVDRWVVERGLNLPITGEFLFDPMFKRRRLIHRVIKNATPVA

Experiment [2] has as its target T2, Pex32-3xHA (S. cerevisiae) (UniProt P38292).
T2 sequence: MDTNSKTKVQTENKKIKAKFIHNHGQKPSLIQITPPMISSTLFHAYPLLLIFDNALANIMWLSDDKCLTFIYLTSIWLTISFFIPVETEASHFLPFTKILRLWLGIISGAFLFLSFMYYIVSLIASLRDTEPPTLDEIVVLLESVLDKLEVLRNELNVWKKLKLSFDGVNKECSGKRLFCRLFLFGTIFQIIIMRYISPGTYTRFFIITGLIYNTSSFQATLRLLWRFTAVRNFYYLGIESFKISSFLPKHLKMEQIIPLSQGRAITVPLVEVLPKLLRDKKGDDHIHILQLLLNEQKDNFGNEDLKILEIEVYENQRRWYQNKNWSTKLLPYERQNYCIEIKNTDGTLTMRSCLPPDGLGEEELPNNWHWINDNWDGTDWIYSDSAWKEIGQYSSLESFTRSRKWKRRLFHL

In experiment [3] the target is Pex29^DysFΔ (S. cerevisiae) (UniProt Q03370).
For experiment [4], the target named is Pex32^DysFΔ (S. cerevisiae) (UniProt P38292).

No constants are given. Whether binding was seen depends on the method and setting. In cells and extracts the contact can be indirect. Binding can be weak; no strength is given. For some of these results: Tags and fused reporters may be left off the sequences shown.

Turning to Pex30^DysFΔ (from UniProt Q06169), the binding entry in experiment [1] and in experiment [2] was “binds” each time.

B1: Pex30 (protein, UniProt Q06169 1-523)
chain: MSGNTTNVHETRAKFAETLQPRIGGNTTKVIRAALEKNEAESGVSEDNDNGSLEKVNVATSPLLTSTPPTISKALVKLYPYLILIDEFLNVVTWTGKNIWSSVLMLCLFITTVEYFETLVKYFGHLAIIAILWGYSLLDNYIEGTLSSSPTLEDIALLMNRVSLKSDILLSPMVNLGTQDIQRLLYTTVILSPIYVMITWLLLPPRSLMLMVGMFLLTYHSPWSKVARRLLWKFKIVRLLVFYVTGLDLGGINKDQGIFATVQKQVKKLASTENSNGVLSDSKPIRFTYVLYENQRRWLGIGWKPSMLSYERTPWTDEFLNEAPSPENFHLPEETNTMVWRWVDKTWRLDMTNDGAIQVPNSKARTSADPSPDEGFIYYDNTWKKPSKEDSFSKYTRRRRWVRTAELVKTSDFDESVINSNRNSAIEQKVEENSTNGLTAEQELGSNKQEKDNAKKVGEPTTEETKEFAEASNINEGEFERISSTDEEVLKSRARDRLAKVLDDTEEKEQSNPTIGRDSKKAV
For the molecule B1, the binding result in experiment [3] and in experiment [4] was “binds” throughout.
